Publication PMC6911156
No constants are given. Whether binding was seen depends on the method and setting. Binding seen in cells or lysates may run through a third protein. A yes stands for co-enrichment or nearness to the bait. Other partners may have been found.

Sequences of proteins named here, by UniProt entry; tags and fusion partners are left off. Residues count along the entry.
UniProt P80370, residues 24-383: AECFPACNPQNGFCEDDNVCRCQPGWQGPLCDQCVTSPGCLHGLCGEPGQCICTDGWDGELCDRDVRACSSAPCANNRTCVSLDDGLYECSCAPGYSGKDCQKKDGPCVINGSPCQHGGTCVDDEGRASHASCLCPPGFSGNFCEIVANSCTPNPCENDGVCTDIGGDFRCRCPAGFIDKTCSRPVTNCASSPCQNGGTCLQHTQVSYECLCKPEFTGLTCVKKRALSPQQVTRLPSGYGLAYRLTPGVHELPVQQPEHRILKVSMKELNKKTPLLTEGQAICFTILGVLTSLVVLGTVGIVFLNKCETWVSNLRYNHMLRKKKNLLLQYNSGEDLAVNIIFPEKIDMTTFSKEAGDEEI
UniProt O75376: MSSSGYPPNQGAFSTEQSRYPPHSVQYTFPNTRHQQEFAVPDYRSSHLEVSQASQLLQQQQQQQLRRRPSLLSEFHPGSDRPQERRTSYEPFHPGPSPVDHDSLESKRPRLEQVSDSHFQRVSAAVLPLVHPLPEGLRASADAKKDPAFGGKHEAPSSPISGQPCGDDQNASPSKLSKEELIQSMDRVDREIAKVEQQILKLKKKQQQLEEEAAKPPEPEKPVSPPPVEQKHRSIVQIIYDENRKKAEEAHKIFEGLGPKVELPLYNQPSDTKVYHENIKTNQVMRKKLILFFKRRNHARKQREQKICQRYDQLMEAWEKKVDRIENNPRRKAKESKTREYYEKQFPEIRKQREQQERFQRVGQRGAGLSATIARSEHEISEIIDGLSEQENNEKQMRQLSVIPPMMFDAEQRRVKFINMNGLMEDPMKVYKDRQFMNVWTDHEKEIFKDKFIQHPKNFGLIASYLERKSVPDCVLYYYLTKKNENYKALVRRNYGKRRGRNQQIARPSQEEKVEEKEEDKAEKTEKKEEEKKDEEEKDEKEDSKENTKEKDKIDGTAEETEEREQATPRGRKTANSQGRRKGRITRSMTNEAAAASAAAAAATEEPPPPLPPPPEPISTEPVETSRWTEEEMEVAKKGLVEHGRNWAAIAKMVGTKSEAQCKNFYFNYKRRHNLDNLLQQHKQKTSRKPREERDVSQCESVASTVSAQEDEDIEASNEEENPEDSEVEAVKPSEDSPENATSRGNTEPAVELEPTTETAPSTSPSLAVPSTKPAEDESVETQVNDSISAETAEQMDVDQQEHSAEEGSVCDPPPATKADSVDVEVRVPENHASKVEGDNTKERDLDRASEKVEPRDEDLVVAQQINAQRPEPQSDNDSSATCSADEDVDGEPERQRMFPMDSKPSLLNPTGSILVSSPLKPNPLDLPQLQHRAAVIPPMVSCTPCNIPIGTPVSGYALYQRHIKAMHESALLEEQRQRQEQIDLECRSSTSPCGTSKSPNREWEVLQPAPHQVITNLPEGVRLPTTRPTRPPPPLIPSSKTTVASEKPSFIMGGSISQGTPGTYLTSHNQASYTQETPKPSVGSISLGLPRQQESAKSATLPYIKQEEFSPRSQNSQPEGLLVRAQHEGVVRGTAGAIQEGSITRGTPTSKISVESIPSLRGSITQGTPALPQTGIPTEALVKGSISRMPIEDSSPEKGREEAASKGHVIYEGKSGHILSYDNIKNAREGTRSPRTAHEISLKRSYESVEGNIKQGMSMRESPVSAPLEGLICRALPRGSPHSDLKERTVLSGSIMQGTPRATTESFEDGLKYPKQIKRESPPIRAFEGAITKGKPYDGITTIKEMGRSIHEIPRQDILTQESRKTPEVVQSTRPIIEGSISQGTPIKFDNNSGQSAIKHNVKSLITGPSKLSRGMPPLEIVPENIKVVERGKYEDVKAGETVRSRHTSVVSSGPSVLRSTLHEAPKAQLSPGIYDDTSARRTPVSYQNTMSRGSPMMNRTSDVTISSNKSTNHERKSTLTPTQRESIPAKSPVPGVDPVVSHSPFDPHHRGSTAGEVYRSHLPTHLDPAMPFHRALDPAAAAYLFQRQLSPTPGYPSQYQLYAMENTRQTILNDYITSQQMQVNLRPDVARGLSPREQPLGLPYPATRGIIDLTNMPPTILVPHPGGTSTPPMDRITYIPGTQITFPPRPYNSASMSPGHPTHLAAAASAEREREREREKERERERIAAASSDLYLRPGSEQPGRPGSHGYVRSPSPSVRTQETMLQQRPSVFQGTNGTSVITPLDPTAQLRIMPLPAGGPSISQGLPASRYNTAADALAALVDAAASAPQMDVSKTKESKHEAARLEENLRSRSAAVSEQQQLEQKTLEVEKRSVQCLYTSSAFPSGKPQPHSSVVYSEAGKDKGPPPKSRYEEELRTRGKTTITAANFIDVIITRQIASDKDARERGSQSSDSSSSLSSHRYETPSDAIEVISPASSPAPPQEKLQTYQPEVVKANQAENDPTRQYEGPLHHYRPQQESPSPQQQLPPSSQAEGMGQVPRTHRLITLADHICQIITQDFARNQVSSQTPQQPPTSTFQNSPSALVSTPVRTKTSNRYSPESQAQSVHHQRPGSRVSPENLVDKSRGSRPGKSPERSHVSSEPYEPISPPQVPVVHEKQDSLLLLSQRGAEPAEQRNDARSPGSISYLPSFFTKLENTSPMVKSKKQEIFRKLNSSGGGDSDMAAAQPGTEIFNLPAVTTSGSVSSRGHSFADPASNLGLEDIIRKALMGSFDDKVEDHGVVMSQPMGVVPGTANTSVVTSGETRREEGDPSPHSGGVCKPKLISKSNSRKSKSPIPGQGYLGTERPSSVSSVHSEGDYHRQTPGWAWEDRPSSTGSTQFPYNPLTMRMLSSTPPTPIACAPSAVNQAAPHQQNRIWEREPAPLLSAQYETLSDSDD

Biological target: Delta-like homolog 1 (DLK1) (human (endogenous in A549 and H1299)) (UniProt P80370)
Assay: affinity purification with mass spectrometry; A549 total cell lysate incubated with rabbit polyclonal anti-DLK1 antibody and protein A/G beads overnight at 4°C; bands differing from the normal rabbit IgG control cut from the Coomassie-stained SDS/PAGE gel for LC-MS; two independent pull-downs

binding: binds
Substance: nuclear receptor corepressor 1 (NCOR1) (from UniProt O75376 1-2440)
